Numbering of substitutions follows the chain as printed. The exact form of at least one protein or probe is not confirmed. Weaker means in comparison with the reference protein, sequence or condition of that experiment. Protein sequences can lack the tags named with them.
Key:
Experiment in all cases: EMSA
hNEIL2 WT (Homo sapiens) = molecular target: T1, hNEIL2 WT (Homo sapiens) (UniProt Q969S2); details: 5 mM Mg2+, smear, weaker than THF:G duplex; 25 mM potassium phosphate pH 7.5, 5 mM MgCl2, 1 mM DTT, 0.5 mg/mL BSA, 10% glycerol; 35 nM bubble or 100 nM duplex ligand; 5 min on ice, 8% native PAGE at 4 C; recombinant protein; protein details: C-terminal GHHHHHH; label: 32P
T1 sequence (looked up, limits assumed): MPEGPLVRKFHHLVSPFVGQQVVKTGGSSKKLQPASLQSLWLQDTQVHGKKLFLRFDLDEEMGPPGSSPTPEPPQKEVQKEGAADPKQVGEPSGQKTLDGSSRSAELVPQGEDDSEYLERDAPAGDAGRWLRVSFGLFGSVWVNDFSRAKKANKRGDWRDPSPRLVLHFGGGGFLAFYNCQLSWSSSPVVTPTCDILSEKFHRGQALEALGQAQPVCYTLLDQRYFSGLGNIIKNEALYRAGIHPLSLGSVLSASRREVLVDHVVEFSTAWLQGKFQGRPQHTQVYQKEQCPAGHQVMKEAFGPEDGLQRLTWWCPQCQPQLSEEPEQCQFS

[1] = molecular target: T2, hNEIL2 R103W (Homo sapiens) (UniProt Q969S2); details: 5 mM Mg2+, smear, weaker than WT and than THF:G duplex; 25 mM potassium phosphate pH 7.5, 5 mM MgCl2, 1 mM DTT, 0.5 mg/mL BSA, 10% glycerol; 35 nM bubble or 100 nM duplex ligand; 5 min on ice, 8% native PAGE at 4 C; recombinant protein; protein details: C-terminal GHHHHHH; label: 32P
T2 sequence (looked up, limits assumed): T1 sequence (looked up, limits assumed) with R103W

[2] = molecular target: T3, hNEIL2 P304T (Homo sapiens) (UniProt Q969S2); details: 5 mM Mg2+, smear, weaker than WT and than THF:G duplex; 25 mM potassium phosphate pH 7.5, 5 mM MgCl2, 1 mM DTT, 0.5 mg/mL BSA, 10% glycerol; 35 nM bubble or 100 nM duplex ligand; 5 min on ice, 8% native PAGE at 4 C; recombinant protein; protein details: C-terminal GHHHHHH; label: 32P
T3 sequence (looked up, limits assumed): T1 sequence (looked up, limits assumed) with P304T

Measured: binding result

CTCTCCCTTCCCTCCTTTCCTCT (double strand) [undamaged C:G duplex (23C//23comp)]
binds more weakly: all assays above
